The experiment concerns HEK293A TEAD-LUC reporter. The experiment is described as follows: TEAD-luciferase reporter activity (YAP activation), robust Z score vs plate; higher = stronger YAP/TEAD activation. To be noted: 24 h.

In the supplement of paper PMC10735217 one finds TEAD-luciferase reporter activity data, which are given here for 35 compounds.

Molecules are shown by their SMILES. Where a name gives a salt, the structure may show the parent alone. This is one part of the list. Single values are uncertain here, since repeats match poorly.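 The human kidney-derived cells carry a stably integrated construct of eight TEAD-binding elements driving luciferase, read by luminescence in a drug-repurposing library screen. A compound counts as a hit when its signal is more than five robust Z scores above the plate mean.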

As for `CC(=O)NCCC(=O)N1Cc2ccccc2CC2(CCCCN2CC2CCNC2)C1` (centres undefined), the TEAD-luciferase reporter activity is inactive: -1.3 (compound concentration: 200 nM) and inactive: -1 (compound concentration: 10 uM).

For the compound `CC(C)=CCC/C(C)=C/CC(C/C=C(\C)CCC=C(C)C)(P(=O)([O-])[O-])P(=O)([O-])[O-]` [Digeranyl bisphosphonate], the TEAD-luciferase reporter activity by setting is: (compound concentration: 200 nM) inactive: 0.529; (compound concentration: 2 uM) inactive: 0.289; (compound concentration: 10 uM) inactive: 1.11.

As to `C[C@H](C(=O)O)c1cccc(NC(=O)NCC(=O)N2[C@@H](c3ccccc3F)SC[C@H]2C(=O)OC(C)(C)C)c1`, the TEAD-luciferase reporter activity (compound concentration: 200 nM) was inactive: -1.53, the TEAD-luciferase reporter activity (compound concentration: 2 uM) is inactive: 0.925 and the TEAD-luciferase reporter activity (compound concentration: 10 uM) was inactive: -1.04.

For the compound `CCCCc1nc(Cl)c(C(=O)OC(C)OC(=O)OCC)n1Cc1ccc(-c2ccccc2-c2nn[nH]n2)cc1` (centres undefined) [Elisartan potassium], the TEAD-luciferase reporter activity (compound concentration: 200 nM) is inactive: -0.265, the TEAD-luciferase reporter activity (compound concentration: 2 uM) is inactive: -0.591 and the TEAD-luciferase reporter activity (compound concentration: 10 uM) was inactive: -0.357.

Consider `NS(=O)(=O)c1cc2c(cc1C(F)(F)F)NC=NS2(=O)=O`, for which the TEAD-luciferase reporter activity is, setting by setting: (compound concentration: 200 nM) inactive: -0.955; (compound concentration: 2 uM) inactive: -0.778; (compound concentration: 10 uM) inactive: 0.194.

With `CC(=O)N(OCc1ccccc1)[C@@H]1c2cc(C#N)ccc2OC(C)(C)[C@H]1O`, the TEAD-luciferase reporter activity by setting is: (compound concentration: 200 nM) inactive: -1.01; (compound concentration: 2 uM) inactive: -0.551; (compound concentration: 10 uM) inactive: 3.18.

For `O=C(CN1C(=O)c2ccccc2C1=O)NC1CCN(CCc2ccccc2)CC1`, the TEAD-luciferase reporter activity (compound concentration: 200 nM) is inactive: -0.776, the TEAD-luciferase reporter activity (compound concentration: 2 uM) is inactive: -0.605 and the TEAD-luciferase reporter activity (compound concentration: 10 uM) is inactive: 0.295.

For the compound `CC1CCN(Cc2nc3c(c(=O)n(C)c(=O)n3C)n2CC(=O)c2ccccc2)CC1`, the TEAD-luciferase reporter activity (compound concentration: 200 nM) is inactive: -0.378, the TEAD-luciferase reporter activity (compound concentration: 2 uM) was inactive: -1.9 and the TEAD-luciferase reporter activity (compound concentration: 10 uM) was inactive: 1.14.

On to `CC[N+](C)(CC)CC(O)COCC1COc2ccccc2O1` (centres undefined), for which the TEAD-luciferase reporter activity is inactive: -1.84 (compound concentration: 200 nM), inactive: 0.405 (compound concentration: 2 uM) and inactive: 4.97 (compound concentration: 10 uM).

With `COc1cc(N)cn[n+]1-c1ccccc1` [Amezinium methylsulfate], the TEAD-luciferase reporter activity (compound concentration: 200 nM) was inactive: -2.33, the TEAD-luciferase reporter activity (compound concentration: 2 uM) is inactive: -1.56 and the TEAD-luciferase reporter activity (compound concentration: 10 uM) is inactive: -0.71.

Consider `C[C@H](NC(=O)[C@@H](Cc1ccc2ccccc2c1)NC(=O)[C@@H](C)N)C(=O)N[C@@H](Cc1c[nH]c2ccccc12)C(=O)N[C@H](Cc1ccccc1)C(=O)N[C@@H](CCCCN)C(N)=O` [Pralmorelin], for which the TEAD-luciferase reporter activity was inactive: -1.27 (compound concentration: 200 nM), inactive: 1.01 (compound concentration: 2 uM) and inactive: -0.547 (compound concentration: 10 uM).

As for `CCN(CCNc1ccc(C)c2sc3ccccc3c(=O)c12)CC(C)(C)O`, the TEAD-luciferase reporter activity is, setting by setting: (compound concentration: 200 nM) active: 7.5; (compound concentration: 2 uM) inactive: -0.627; (compound concentration: 10 uM) inactive: 1.49.

In the case of `CO[C@@H](C)Cn1c(=O)n(C)c2cnc3ccc(-c4cncc(C(C)(C)O)c4)cc3c21`, the TEAD-luciferase reporter activity was inactive: -0.409 (compound concentration: 200 nM), inactive: -1.29 (compound concentration: 2 uM) and inactive: -0.456 (compound concentration: 10 uM).

As to `CC(/C=C/C=C(\C)c1cc(C(C)(C)C)cc(C(C)(C)C)c1)=C\C(=O)O`, the TEAD-luciferase reporter activity is inactive: 0.595 (compound concentration: 200 nM), inactive: 0.362 (compound concentration: 2 uM) and inactive: -0.27 (compound concentration: 10 uM).

`C#C[C@]1(O)CC[C@H]2[C@@H]3CCC4=CCCC[C@@H]4[C@H]3CC[C@@]21C` [Lynestrenol]: the TEAD-luciferase reporter activity (compound concentration: 2 uM) is inactive: -1.52.

On to `C#C[C@]1(O)CC[C@H]2[C@@H]3CCC4=CCCC[C@@H]4[C@H]3CC[C@@]21C`, for which the TEAD-luciferase reporter activity was inactive: -0.306 (compound concentration: 200 nM) and inactive: -0.544 (compound concentration: 10 uM).

On to `O=C(NC1CCN(CCc2c[nH]c3ccccc23)CC1)c1ccccc1` [indoramin], for which the TEAD-luciferase reporter activity runs as follows: (compound concentration: 200 nM) inactive: -0.144; (compound concentration: 2 uM) inactive: 0.303; (compound concentration: 10 uM) inactive: 0.479.

Turning to `COC(=O)C1(OC(=O)c2cncn2[C@H](C)c2ccccc2)CC1` [Cyclopropyl-methoxycarbonyl metomidate], the TEAD-luciferase reporter activity is, setting by setting: (compound concentration: 200 nM) inactive: 1.18; (compound concentration: 2 uM) inactive: -0.216; (compound concentration: 10 uM) inactive: 0.0712.

`CCOC(=O)C(C)(C)CCCOc1ccc2c(c1)C=C(c1nccn1C)CC2`: the TEAD-luciferase reporter activity runs as follows: (compound concentration: 200 nM) inactive: 0.899; (compound concentration: 2 uM) inactive: 1.34; (compound concentration: 10 uM) inactive: -0.817.

Take `COc1nnc(-c2cc3c([nH]c2=O)CCN(Cc2ccccc2)C3)o1`: the TEAD-luciferase reporter activity (compound concentration: 200 nM) was inactive: -2.37, the TEAD-luciferase reporter activity (compound concentration: 2 uM) is inactive: -1.35 and the TEAD-luciferase reporter activity (compound concentration: 10 uM) was inactive: 0.0102.

On to `CC(C)(CCCCCCCCCCC(C)(C)CC(=O)O)CC(=O)O`, for which the TEAD-luciferase reporter activity (compound concentration: 200 nM) is inactive: -0.42, the TEAD-luciferase reporter activity (compound concentration: 2 uM) was inactive: -1.36 and the TEAD-luciferase reporter activity (compound concentration: 10 uM) was inactive: -0.833.

In the case of `CC(CCc1ccc2c(c1)OCO2)NN` (centres undefined), the TEAD-luciferase reporter activity (compound concentration: 200 nM) is inactive: -0.925, the TEAD-luciferase reporter activity (compound concentration: 2 uM) is inactive: -0.143 and the TEAD-luciferase reporter activity (compound concentration: 10 uM) was inactive: -0.0513.

On to `CCc1ccc(CCOc2ccc(Cc3sc(O)nc3O)cc2)nc1` [pioglitazone hydrochloride], for which, where the note is “compound concentration: 2 uM”, the TEAD-luciferase reporter activity was inactive: -0.547.

In the case of `CCCCNCC(O)c1cc(-c2ccc(C(F)(F)F)cc2)nc(-c2ccc(C(F)(F)F)cc2)c1` (centres undefined), the TEAD-luciferase reporter activity was inactive: -0.947 (compound concentration: 200 nM), inactive: -0.0456 (compound concentration: 2 uM) and inactive: -0.21 (compound concentration: 10 uM).

With `CCS(=O)(=O)c1ccc2[nH]c(Oc3ccc(-c4ccccc4)nc3)nc2c1`, the TEAD-luciferase reporter activity is, setting by setting: (compound concentration: 200 nM) inactive: -0.657; (compound concentration: 2 uM) inactive: 2.08; (compound concentration: 10 uM) inactive: 0.77.

On to `CCOC(=O)CNC(=O)CCCCSc1[nH]cnc2ncnc1-2` [butocin], for which the TEAD-luciferase reporter activity was inactive: 4.74 (compound concentration: 200 nM), inactive: -0.748 (compound concentration: 2 uM) and inactive: -0.947 (compound concentration: 10 uM).

`O=C1c2cc(Cl)ccc2OC2CCON12` (centres undefined) [seclazone]: the TEAD-luciferase reporter activity runs as follows: (compound concentration: 200 nM) active: 5.36; (compound concentration: 2 uM) inactive: 3.14; (compound concentration: 10 uM) inactive: 0.534.

For the compound `CCOc1cc2ncc(C#N)c(Nc3ccc(F)c(Cl)c3)c2cc1NC(=O)/C=C/CN(C)C` [pelitinib], the TEAD-luciferase reporter activity (compound concentration: 200 nM) is inactive: -0.329, the TEAD-luciferase reporter activity (compound concentration: 2 uM) is inactive: -1.34 and the TEAD-luciferase reporter activity (compound concentration: 10 uM) is inactive: -1.08.

For `OC(c1ccccc1)(c1ccccc1)[C@@H]1C[C@H]1c1ccncc1`, the TEAD-luciferase reporter activity is inactive: 0.73 (compound concentration: 200 nM), inactive: -0.266 (compound concentration: 2 uM) and inactive: -0.536 (compound concentration: 10 uM).

As to `CNCCCN1c2ccccc2CCc2ccc(Cl)cc21` [chlordesipramine], the TEAD-luciferase reporter activity (compound concentration: 200 nM) is inactive: -0.66, the TEAD-luciferase reporter activity (compound concentration: 2 uM) is inactive: 2.7 and the TEAD-luciferase reporter activity (compound concentration: 10 uM) was inactive: -0.478.

With `CN(C)CCSC(=O)N(c1ccccc1)c1ccccc1`, the TEAD-luciferase reporter activity reads like this: (compound concentration: 200 nM) inactive: -1.79; (compound concentration: 2 uM) inactive: 0.695; (compound concentration: 10 uM) inactive: 0.95.

As for `Nc1ncccc1-c1nc2ccc(-c3ccccc3)nc2n1-c1ccc(C2(N)CCC2)cc1`, the TEAD-luciferase reporter activity by setting is: (compound concentration: 200 nM) inactive: 0.62; (compound concentration: 2 uM) inactive: -0.957; (compound concentration: 10 uM) inactive: 1.46.

On to `[Cl][Pt-2]1([Cl])([Cl])([Cl])[NH2+]C2CCCCC2[NH2+]1` (centres undefined) [Ormaplatin], for which the TEAD-luciferase reporter activity is, setting by setting: (compound concentration: 200 nM) inactive: -1.53; (compound concentration: 2 uM) inactive: -1.05; (compound concentration: 10 uM) inactive: 1.36.

With `NC(=O)N/N=C/c1ccc(Oc2ccc(F)cc2)cc1`, the TEAD-luciferase reporter activity was inactive: -0.285 (compound concentration: 200 nM), inactive: -1.94 (compound concentration: 2 uM) and inactive: -0.0676 (compound concentration: 10 uM).

Take `O[C@@H]1[C@H](O)[C@@H](CSc2ccccc2F)O[C@H]1n1cnc2c(N[C@@H]3CCC[C@H]3O)ncnc21`: the TEAD-luciferase reporter activity (compound concentration: 200 nM) is inactive: -1.84, the TEAD-luciferase reporter activity (compound concentration: 2 uM) was inactive: -0.302 and the TEAD-luciferase reporter activity (compound concentration: 10 uM) is inactive: -0.11.
